Results are given in words; binding and its absence hold for the method and conditions named. In cells and extracts the contact can be indirect. Some binding calls cover weakened binding; strength is not graded here.
Tests used:
[1] = biological target: neuraminidase-1 (NEU1), endogenous in HUVEC (human (endogenous in HUVEC)) (UniProt Q99519); assay: co-IP; whole lysates of PMA-pre-stimulated HUVEC (100 nM, overnight), cells stimulated or not with κE (50 µg/mL, 1 h); same protocol as for THP-1; immunoprecipitation with mouse monoclonal anti-ICAM-1 or anti-NEU1 antibody, Western blot of the partner
[2] = biological target: intercellular cell adhesion molecule-1 (ICAM-1), endogenous in HUVEC (human (endogenous in HUVEC)) (UniProt P05362); assay: as above

Chains of the proteins cited; added tags and fusions are not shown. Residues count along the entry.
UniProt P05362, residues 28-532: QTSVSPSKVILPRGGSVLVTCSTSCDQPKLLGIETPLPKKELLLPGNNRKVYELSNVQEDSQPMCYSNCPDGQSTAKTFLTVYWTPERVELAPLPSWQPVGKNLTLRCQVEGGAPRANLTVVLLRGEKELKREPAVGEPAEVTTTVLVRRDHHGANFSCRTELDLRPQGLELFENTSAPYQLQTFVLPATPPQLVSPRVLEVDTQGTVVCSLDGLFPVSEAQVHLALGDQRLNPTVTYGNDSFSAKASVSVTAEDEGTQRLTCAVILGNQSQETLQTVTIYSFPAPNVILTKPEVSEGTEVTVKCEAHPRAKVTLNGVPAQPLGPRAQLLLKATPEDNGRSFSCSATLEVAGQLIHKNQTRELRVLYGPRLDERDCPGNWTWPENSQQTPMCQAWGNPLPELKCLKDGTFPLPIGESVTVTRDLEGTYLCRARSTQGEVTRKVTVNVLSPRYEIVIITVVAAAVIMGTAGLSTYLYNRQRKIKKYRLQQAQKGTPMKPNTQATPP

Row | binding [1] | binding [2] | Substance
1 | binds |  | intercellular cell adhesion molecule-1 (ICAM-1), endogenous in HUVEC (from UniProt P05362 28-532) (receptor)
2 |  | binds | neuraminidase-1 (NEU1), endogenous in HUVEC (from UniProt Q99519 48-415) (enzyme)

Reference: paper PMC8670255
